Our source for the binding values is patent US20120289467A1 (UNIVERSITY OF MARYLAND BALTIMORE, published 2012).

These are yes or no findings as the source states them, for the method shown. Some binding calls cover weakened binding; strength is not graded here.

The target of test [1] is T1, VE-cadherin fragment (UniProt P33151 48-477, limits assumed).
T1 construct: also called VE-caherin; immobilized VE-cadherin fragment
T1 sequence (looked up): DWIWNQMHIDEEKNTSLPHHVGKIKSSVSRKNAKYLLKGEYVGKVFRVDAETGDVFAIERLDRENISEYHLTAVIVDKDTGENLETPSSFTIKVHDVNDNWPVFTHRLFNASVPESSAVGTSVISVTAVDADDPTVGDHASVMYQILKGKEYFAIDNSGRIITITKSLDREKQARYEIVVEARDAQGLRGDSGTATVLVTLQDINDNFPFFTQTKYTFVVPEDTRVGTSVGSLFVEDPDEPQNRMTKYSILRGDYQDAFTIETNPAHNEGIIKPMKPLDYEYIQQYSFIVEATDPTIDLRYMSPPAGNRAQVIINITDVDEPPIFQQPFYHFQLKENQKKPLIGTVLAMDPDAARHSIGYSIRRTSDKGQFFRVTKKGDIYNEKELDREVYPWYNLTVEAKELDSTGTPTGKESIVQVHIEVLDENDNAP
As to the kind of experiment: SPR. For orientation: SPR reads the build-up and loss of mass on a sensor chip optically.

In test [2] the target is T1, VE-cadherin fragment. In words: SPR (BIAcore), VE-cadherin fragment immobilized.
For test [3], the target named is T1, VE-cadherin fragment. As to the kind of experiment: plate assay read as absorbance at 450 nm, VE-cad(1-5) concentration varied (0-0.5 µM); format not described in the text.
Test [4] deals with T1, VE-cadherin fragment. As to the kind of experiment: SPR, VE-cadherin fragment immobilized.

B1: (β15-66)2 dimer peptide (peptide)
peptide: GHRPLDKKREEAPSLRPAPPPISGGGYRARPAKAAATQKKVERKAPDAGGCG
Turning to B1, the binding result in the test with VE-cadherin fragment [1] is recorded as “binds”.

With GHRPLDKKREEAPSLRPAPPPISGGGYR (also called monomeric β15-42) [β15-42 monomeric peptide], the binding entry with VE-cadherin fragment [1] and with VE-cadherin fragment [2] was “binds” in each case.

Regarding GHRPLDKKREEAPSLRPAPPPISGGGYRARPAKAAATQKKVERKAPDAGG [β15-64 monomeric peptide], the binding result with VE-cadherin fragment [1] and with VE-cadherin fragment [2] was “binds” each time.

In the case of GHRPLDKKREEAPSLRPAPPPISGGGYRCG [(β15-44)2 dimer peptide], the binding entry in the test with VE-cadherin fragment [3], with VE-cadherin fragment [1] and in the test with VE-cadherin fragment [4] was “binds” each time.
